Earlier results in patent US6011047A, “Substituted 3-amino-2-hydroxyphenylacetamide derivatives as enzyme inhibitors” (priority 1997, dated 2000).
For at least one compound, name, drawing or mass did not settle the structure.

System: thrombin
Settings: in words; cited from earlier work

## CCOC(=O)c1ccc(OC(=O)CCCCCNC(=N)N)cc1 [FOY, [ethyl p-(6-guanidinohexanoyloxy) benzoate] methane sulfonate]
  selectivity of thrombin inhibition: non-selective competitive inhibitor of thrombin
